In PubChem BioAssay AID493014 (National Center for Advancing Translational Sciences (NCATS), 2011) one finds AC50 data, which are given here for 61 compounds.

The list shows a part of the results. These are further read-outs of the screen, such as a control signal, another cell line or another target. No call is given for them. Most of these compounds were active or inconclusive in the main read-out, so they are no random draw. Words in brackets tell the shape of the fitted curve; partial curves, single points and poor fits give uncertain potencies.

A short description of the assay: qHTS Assay to Find Inhibitors of Chronic Active B-Cell Receptor Signaling. As to conditions: ABC-DLBCL IkBa-CBG/CBR reporter, luminescence ratio (green luciferase fused to IkBa over red control in TMD8 lymphoma cells), 4 h. The essentials:
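TMD8 human ABC-DLBCL cells with doxycycline-inducible IκBα–green luciferase fusion and unfused red luciferase, in 0.5% FBS medium; compounds up to 46 uM, 4 h at 37C. Green/red luminescence ratio, filter-overlap corrected, fitted to concentration-response curves.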
(Quantitative high-throughput screening tests each substance at several concentrations.)

The mark [1] stands for this setting: measured here: CBR red luminescence, cell number.

In general, AC50 refers to the concentration giving half of the maximal activity seen. For the compound `O=C1/C(=C\c2ccc(Cl)cc2Cl)N2CCC1CC2`, the AC50 under setting [1] is 0.794 µM [falling, full curve, poor fit].
For `CC(C(=O)c1cn(C)c2ccccc12)c1ccccc1` (configuration not stated), the AC50 under setting [1] is 29.1 µM [falling, single point].
Still for that read-out and setting: next, `CCOP(=O)(OCC)C(NC(=O)C(Cl)Cl)C(Cl)(Cl)Cl` (configuration not stated): 3.16 µM [falling, single point]; `O=P(NC(c1ccccc1)c1ccccc1)(Oc1ccccc1)Oc1ccccc1`: 6.51 µM [rising, partial curve].
Still for that read-out and setting: next, `Cc1nc2cc(-c3cccc(F)c3)nn2c(C)c1CCC(=O)N1CCC2(CC1)OCCO2`: 3.16 µM [falling, full curve].
Still for that read-out and setting: next, `C[C@@H]1C[C@@H]2O[C@H]2/C=C\C=C\C(=O)Cc2c(Cl)c(O)cc(O)c2C(=O)O1`: 0.316 µM [falling, full curve, poor fit]; `CCCCCCOc1ccc(CN2CCN(CC)CC2)cc1`: 29.1 µM [falling, single point].
`O=C(Cn1c(=O)oc2ccccc21)Nc1ccc(F)c(F)c1`: the AC50 under setting [1] was 8.91 µM [falling, partial curve].
As to `CNC(=O)Oc1cccc(-c2cn3cc(OC(=O)NC)ccc3n2)c1`, under setting [1], the AC50 is 8.2 µM [falling, partial curve, poor fit].
The same measure, in the same setting: then `Nc1c(C(=O)OCC2CCCO2)c2nc3ccccc3nc2n1Cc1cccs1` (configuration not stated), with 11.2 µM [falling, partial curve, poor fit].
Same read-out and setting: next, `CC(=O)Nc1ccc(N=Cc2c(O)n(Cc3ccco3)c(=O)[nH]c2=O)cc1`: 5.62 µM [falling, single point].
On the same count and under the same terms, then `CC(=O)OCC[N+](C)(C)C`, with 25.9 µM [rising, single point]; and `CCN(CC)c1ccc(N=Cc2c(O)n(Cc3ccco3)c(=O)[nH]c2=O)cc1`, with 3.16 µM [falling, partial curve, poor fit]; and `O=C(NC(=O)c1c(F)cccc1F)Nc1cc(Cl)c(F)c(Cl)c1F`, with 0.1 µM [falling, full curve, poor fit].
For `NC1=C([N+](=O)[O-])C(c2ccc3c(c2)OCO3)c2c(c3ccccc3oc2=O)O1` (configuration not stated), the AC50 under setting [1] is 1 µM [falling, full curve].
As to `Cn1cccc1/C=N/NC(=O)c1cccs1`, under setting [1], the half-maximal activity concentration (AC50) was 8.91 µM [falling, partial curve].
The same measure, in the same setting: then `Clc1ccc2sc(C3CCNCC3)nc2c1`, with 12.6 µM [falling, partial curve].
Still for that read-out and setting: then `COC(=O)c1sc(NC(=O)c2cc(-c3ccccc3)nc3ccccc23)c(C#N)c1C`, with 15.8 µM [falling, partial curve, poor fit]; and `O=C(CC1CCCCC1)c1c(O)c2ccccc2oc1=O`, with 6.51 µM [falling, partial curve].
Still for that read-out and setting: next, `Cc1ccc(OCCOc2cccc(C=C3C(=O)NC(=O)NC3=O)c2)cc1`: 6.31 µM [falling, full curve].
Turning to `CCCCCn1c(=O)c(C(=O)Nc2ccccc2)c(O)c2ccccc21`, under setting [1], the AC50 was 3.16 µM [falling, partial curve, poor fit].
On the same count and under the same terms, then `CN1C(=O)/C(=C/c2cccn2-c2ccc3ccccc3c2)C(=O)NC1=S`, with 3.16 µM [falling, single point].
On the same count and under the same terms, then `COc1ccc(C(=O)OC2CC[C@@]3(C)C4CCC5[C@]6(O)CC(O)[C@@]7(O)C(CN8CC(C)CCC8[C@@]7(C)O)[C@]6(O)C[C@@]53O[C@]24O)cc1OC` (some centres not stated), with 20 µM [rising, single point].
On the same count and under the same terms, then `CCOC(=O)c1cnc2c(C(=O)OCC)cnn2c1N`, with 3.98 µM [rising, partial curve, poor fit]; and `COc1ccc(OC)c(-n2c(O)c(/C=C3\C=Nc4ccccc43)c(=O)[nH]c2=O)c1`, with 0.501 µM [rising, full curve, poor fit].
Regarding `Cc1nc2cc(C(F)(F)F)ccc2n1C1CCN(Cc2nnnn2CCc2ccccc2)CC1`, the AC50 under setting [1] was 2.06 µM [falling, full curve].
Turning to `O=C1NC(=O)N(Cc2ccco2)C(=O)/C1=C\c1cccn1CCOc1ccc(Cl)cc1`, the AC50 was 23.1 µM [rising, single point] under setting [1] and 16.4 µM [falling, partial curve, poor fit] (measured here: IkBa-CBG green luminescence).
Consider `CCOC(=O)c1ccc(-[n+]2c(-c3ccccc3)cc(-c3ccccc3)cc2-c2ccccc2)cc1`, for which the AC50 under setting [1] is 16.4 µM [falling, single point].
Still for that read-out and setting: then `COc1ccccc1-n1c(O)c(/C=N/N2CCCCC2)c(=O)n(-c2ccccc2OC)c1=S`, with 11.2 µM [falling, partial curve, poor fit]; and `CC[N+](CC)(CC)CCCCCCCCCC[N+](CC)(CC)CC`, with 0.00517 µM [falling, full curve, poor fit].
The same measure, in the same setting: next, `COc1cc(-c2noc(C)c2/C=C/c2ccc(OC(C)=O)cc2)cc(OC)c1OC`: 8.91 µM [rising, partial curve]; `CSc1ccc(C(=O)C2CCCN(Cc3cc4ccccc4[nH]3)C2)cc1` (configuration not stated): 0.794 µM [falling, partial curve, poor fit]; `CC(=O)Nc1cccc2c1Cc1ccccc1-2`: 17.8 µM [rising, partial curve].
For the compound `COC(=O)C1=C(c2ccc(-c3ccccc3)c(F)c2)C[C@@H]2CC[C@H]1N2C(=O)NCC1CC1`, the AC50 under setting [1] is 23.1 µM [falling, partial curve, poor fit].
Same read-out and setting: next, `C/C(=N/OC(=O)N(C)C)c1ncc(C(F)(F)F)cc1N1CCOCC1`: 3.66 µM [rising, partial curve, poor fit]; `O=[N+]([O-])c1cc(S(=O)(=O)c2ccc(O)c([N+](=O)[O-])c2)ccc1O`: 0.651 µM [falling, full curve, poor fit].
Consider `CCC(=O)c1cn(Cc2ccc(C#N)cc2)c2ccccc12`, for which, under setting [1], the AC50 is 7.31 µM [falling, partial curve, poor fit].
As for `Cc1ccc(-n2c(/C=C/c3ccc(Br)s3)nc3ccccc3c2=O)cc1`, under setting [1], the AC50 was 4.47 µM [rising, full curve].
Still for that read-out and setting: next, `c1ccc(-c2ccc(-c3n(-c4ccccn4)c4ccccc4[n+]3-c3ccccn3)cc2)cc1`: 12.6 µM [falling, single point]; `Nc1ccccc1C(=O)OCCOc1ccccc1`: 14.6 µM [falling, single point].
With `CCCSC1=NN2CCCC(=O)N=C2S1`, the AC50 under setting [1] was 10 µM [rising, partial curve, poor fit].
On the same count and under the same terms, then `C[C@]12CC[C@@H]3c4ccc(O)c(O)c4CC[C@H]3[C@@H]1CC[C@@H]2O`, with 35.5 µM [falling, single point].
Consider `Clc1ccc(C(Cn2ccnc2)OCc2csc3c(Cl)cccc23)c(Cl)c1` (configuration not stated), for which, under setting [1], the AC50 is 20.6 µM [falling, partial curve].
Same read-out and setting: then `COC(=O)C1=C(c2ccc(OC)c(OC)c2)C[C@@H]2CC[C@H]1N2C(=O)N1CCOCC1`, with 2.31 µM [rising, full curve]; and `CCCCCCNc1nc(OC)nc(N2CC3CC(C2)c2cccc(=O)n2C3)n1` (configuration not stated), with 0.1 µM [rising, full curve, poor fit].
Take `Cn1c(O)c(/C=N/N2CCCCC2)c(=O)[nH]c1=O`: the concentration at half-maximal activity (AC50) under setting [1] is 32.6 µM [falling, partial curve, poor fit].
On the same count and under the same terms, next, `CCCCn1c(O)c(C(=O)/C=C/c2ccc3c(c2)OCO3)c(=O)[nH]c1=O`: 2.82 µM [falling, full curve].
Same read-out and setting: then `CC(C)CCn1c(N)c(C(=O)OCC2CCCO2)c2nc3ccccc3nc21` (configuration not stated), with 11.2 µM [falling, partial curve]; and `O=c1[nH]c(=O)n(-c2cccc3ccccc23)c(O)c1C=NCc1ccc2c(c1)OCO2`, with 2.31 µM [falling, single point].
Still for that read-out and setting: next, `Cc1ccc(OC(F)F)c(N2C(=O)C3C4CCC(O4)C3C2=O)c1` (configuration not stated): 0.00461 µM [falling, full curve, poor fit]; `COc1ccc(C(=O)C2CCCN(Cc3cnc(C)s3)C2)cc1OC` (configuration not stated): 17.8 µM [rising, partial curve, poor fit].
As to `CC1CCCCN1CC(=O)c1ccc2cc[nH]c2c1` (configuration not stated), the AC50 under setting [1] is 2.06 µM [falling, single point].
The same measure, in the same setting: then `CC(=O)O[C@H]1C(=O)[C@@]2(C)C([C@H](OC(=O)c3ccccc3)[C@]3(O)C[C@H](O)C(C)=C1C3(C)C)[C@]1(OC(C)=O)CO[C@@H]1C[C@H]2O` (some centres not stated), with 3.16 µM [falling, partial curve, poor fit].
Still for that read-out and setting: next, `CCC(=NCc1ccco1)c1c(O)n(C)c(=O)n(C)c1=O`: 2.82 µM [falling, full curve]; `COc1ccc(/C=N/N=C(/N)N[N+](=O)[O-])c(OC)c1`: 35.5 µM [falling, single point]; `N#CC1=C(N)Oc2c(c(=O)oc3ccccc23)C1c1ccccc1OC(=O)c1cccs1` (configuration not stated): 0.517 µM [falling, full curve].
The same measure, in the same setting: then `COc1ccc(CCNCc2ccccc2)cc1`, with 0.708 µM [falling, full curve, poor fit].
On to `COC(=O)C1=C(c2ccc(OC)c(OC)c2)C[C@@H]2CC[C@H]1N2C(=O)NC1Cc2ccccc2C1`, for which, under setting [1], the concentration at half-maximal activity (AC50) is 2.91 µM [rising, partial curve, poor fit].
The same measure, in the same setting: next, `C[C@@H]1O[C@@H](O[C@@H]2C=C3CC[C@@H]4C(CC[C@]5(C)[C@@H](c6ccc(=O)oc6)CC[C@]45O)[C@@]3(C)CC2)[C@H](O)[C@H](O)[C@H]1O` (some centres not stated): 14.6 µM [falling, partial curve, poor fit]; `O=C(NCCN1CCOCC1)c1ccc(Cl)nc1`: 3.98 µM [rising, full curve, poor fit].
In the case of `Cc1ccsc1/C=N/N1CCN(Cc2ccccc2)CC1`, the AC50 under setting [1] was 3.55 µM [rising, single point].
